{
  "source": "patent US9637724B2",
  "about": "“Selective binding of biological targets to solid phase ureides” (AGENCY FOR SCIENCE, TECHNOLOGY AND RESEARCH, priority 2012, dated 2017)",
  "system": "endotoxin",
  "assay": "Endotoxin reduction from an ovalbumin solution",
  "settings": "start about 50 EU/mL",
  "description": "A sample of ovalbumin in 50 mM phosphate, 100 mM NaCl, pH 7.2, contaminated with about 50 EU/mL of endotoxin, was saturated with 3% allantoin, incubated for 15 minutes, following which the precipitate was removed by membrane filtration. Endotoxin content of the supernatant was reduced by more than 95%, to less than 2 EU per mL. The experiment was repeated with 10% allantoin.",
  "data": [
    {"smiles": "NC(=O)NC1NC(=O)NC1=O", "note": "(centres unmarked) [allantoin]", "values": [
      {"measurement": "Endotoxin content of the supernatant", "setting": "3% allantoin, 15 minutes", "value": "less than 2 EU per mL"},
      {"measurement": "Endotoxin content of the supernatant", "setting": "10% allantoin", "value": "less than 1 EU/mL"}
    ]}
  ]
}
